These results are taken from the RNAGym collection of RNA variant scans (doi:10.1126/science.aae0568).

This sample is rich in variants without activity. Where only a bound is given, the exact number is not on record here.

To fix the notation:
B1: tRNA (parent)
chain: GUUCCGUUGGCGUAAUGGUAACGCGUCUCCCUCCUAAGGAGAAGACUGCGGGUUCGAGUCCCGUACGGAACG

The series covers variants of B1. Put plainly: yeast fitness relative to wild type (ratio to wild type); higher = fitter; tRNA-Arg(CCU), competitive growth, 37 C, YPD. The procedure, abridged: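 Start and end populations of a pooled competition were compared by 100-nucleotide paired-end sequencing of gene amplicons. The Saccharomyces cerevisiae strains carried tRNA-Arg(CCU) gene variants at the native genomic locus, synthesised with a 3% per-site mutation rate at 69 sites, and competed in YPD at 37°C for 24 hours in six parallel replicates. Darwinian fitness relative to wild type was based on the change in genotype frequencies. Genotypes required ≥ 100 starting reads, and estimates < 0.5 were set to 0.5.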
Turning to U3C U54C G67C, the yeast fitness was at most 0.5.
On to G6A G39U, for which the yeast fitness is 0.79.
Take C5A U16C G51A: the yeast fitness is at most 0.5.
The result for C11G U26G C31G reads at most 0.5; that for A14G A15G A42C G52C, at most 0.5; that for C5G C29U G44C, at most 0.5.
For A37G A42U C62A A65C, the yeast fitness is at most 0.5.
For U28C C30G A45G, the yeast fitness is at most 0.5.
To C4G G17A U26C A40G G68U belongs at most 0.5.
For U28A C34G C62U, the yeast fitness was at most 0.5.
Take G38C C49G U53C: the yeast fitness is at most 0.5.
The result for C27G C29G C34U C55U C61G reads 0.65; that for C11G G63U, at most 0.5.
A36U U53G: the yeast fitness came out at 0.544.
The result for C11U U32A A70C reads 0.614; that for C24U C29U A65C, at most 0.5; that for U7A C29A C31A, at most 0.5.
On to G52C C66U A70C, for which the yeast fitness is at most 0.5.
With U2G A15U G68A, the yeast fitness is at most 0.5.
The result for C5G C11G A15C A45U C49U C61G A70C reads at most 0.5.
Turning to C5A C24U G58C A69U, the yeast fitness is at most 0.5.
For the variant C4U C27A U35C A65C A69C, the yeast fitness was at most 0.5.
With A15G C33A C61U, the yeast fitness is at most 0.5.
As for U8A C30G G56C A57G A69C, the yeast fitness is at most 0.5.
Regarding A15U A37U C66G G67C, the yeast fitness is at most 0.5.
On to C27U C30G C66A A70U, for which the yeast fitness was at most 0.5.
For the variant U2G C5U A15U G17A, the yeast fitness was at most 0.5.
For A15C U16A A21G U26A C61A A69U, the yeast fitness is at most 0.5.
On to G6A C33G A36U A57C, for which the yeast fitness is at most 0.5.
In the case of C24G A36U A42U C49G U53A G58A C60A, the yeast fitness was at most 0.5.
To C5U C33A C60U belongs at most 0.5.
In the case of G39C C49A U64G, the yeast fitness is at most 0.5.
For U13A C22U C24G C49U C55G G67C A70G, the yeast fitness is at most 0.5.
As for U32A U35G G67A, the yeast fitness was at most 0.5.
Consider C31G U32C G48C G50A A65U, for which the yeast fitness is at most 0.5.
With A20G G23C U26A G38C A70C, the yeast fitness was at most 0.5.
Consider G17C C24G U28A C30U U54C A57C, for which the yeast fitness is at most 0.5.
Take U26A U28G A70G: the yeast fitness was at most 0.5.
As to C4G C34U C62U A69U, the yeast fitness was at most 0.5.
On to G10C G12A U13C G63A, for which the yeast fitness was at most 0.5.
For the variant A15U C27U G48C G56C, the yeast fitness was at most 0.5.
To G9A G51C G52C A69U belongs at most 0.5; to C11U G18A C29G C30U A40U A70G, at most 0.5; to C4U C46A G52A, at most 0.5.
To A15G A37G C55A belongs at most 0.5; to G9C C29G C34G A65U, at most 0.5; to A14C G51C A70U, at most 0.5.
For C4A C55A C66U, the yeast fitness was at most 0.5.
For the variant C27G C49U C55G, the yeast fitness is at most 0.5.
In the case of U13G U32A C60A, the yeast fitness is at most 0.5.
On to A20U C29G C66U, for which the yeast fitness is at most 0.5.
Turning to U13A A40G A42U G68C A70C, the yeast fitness is at most 0.5.
With A14C U19A A21G C31U, the yeast fitness was at most 0.5.
On to A14C A20C G67A, for which the yeast fitness is at most 0.5.
Turning to C4A G10A U32C A36U, the yeast fitness was at most 0.5.
In the case of A45C G48A G51C, the yeast fitness was at most 0.5.
As for G9C G10C A69G A70G, the yeast fitness is at most 0.5.
On to C34U A40C G51A C61G, for which the yeast fitness was at most 0.5.
Take C29U A69C: the yeast fitness is 0.939.
To U7G A21C G44C A65U belongs at most 0.5; to C11U U13A G50C, at most 0.5.
U3A C4U U8A G10A A21G C49G A57G G67U: the yeast fitness came to 0.655.
To C5U U13A A15G C55U A57U U64G belongs at most 0.5; to U16A C62U A69G, 0.922.
As for C11U C29U A57U C61U, the yeast fitness was at most 0.5.
To C27G C30U C66G belongs at most 0.5; to U2C G18C G23A G25C A37G A43C C55G G68A, at most 0.5; to G9A A36C A40C A45C, at most 0.5.
To C22G G25C C61G belongs 0.659; to U26C U54C U64A, at most 0.5.
With C29G U59A C60G C62U, the yeast fitness is at most 0.5.
On to U7A G9C G17C, for which the yeast fitness came to 0.55.
Turning to A20C C24A C29U, the yeast fitness is at most 0.5.
To G17C C22A U28C A40G A45C C66G A69U belongs at most 0.5.
To U2C C24G A42U G67A belongs at most 0.5.
Turning to C4U C30G C46U G52A G67C, the yeast fitness was at most 0.5.
Turning to G10A A20G A21U U53A C66U, the yeast fitness was at most 0.5.
For the variant C29A C34A C62U, the yeast fitness is at most 0.5.
On to U13G U35G A40G A42G, for which the yeast fitness is at most 0.5.
On to G6A A43G, for which the yeast fitness is 0.801.
Turning to U13G U32A C46A C49A, the yeast fitness is at most 0.5.
Consider U2G C4G A21C C22U, for which the yeast fitness is at most 0.5.
Take U7A A21U C46G: the yeast fitness was at most 0.5.
On to A42U G50A C62U A70G, for which the yeast fitness is at most 0.5.
